# Counter-ions that a name gives are not always drawn. Some of the results follow. This data set is noisy: repeats of one test often differ as much as different tests do.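 The cells were human embryonic kidney cells carrying a Renilla luciferase gene, driven by the HSV-TK promoter, on a plasmid put in briefly by transfection. This is the first-round screen of about ten thousand compounds, looking for ones that raise reporter output.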
# Test system: HEK 293FT
# Test: log relative Renilla luciferase luminescence (reporter expression vs reference, reference not stated) (log (base not stated)); higher = higher recombinant reporter expression
# Settings: 10 µM; time after transfection 48 h
row,Structure (SMILES),log
1,CC(=O)O[C@@H]1[C@H]2CC[C@H]3[C@@](C)(O)[C@@H]4C[C@H](O)C(C)(C)[C@@]4(O)[C@H](O)C[C@@]13C[C@@]2(C)O [grayanotoxin i],0.0183
2,Cc1cccc(C)c1NC(=O)CN1CCCC1=O [nefiracetam],0.0463
3,CO[C@H]1[C@H](O)[C@H](O[C@H]2CC[C@@]3(C=O)[C@H](CC[C@@H]4[C@@H]3CC[C@]3(C)[C@@H](C5=CC(=O)OC5)CC[C@]43O)C2)O[C@@H](C)[C@@H]1O [peruvoside],-1.55
4,S=C=NCc1ccccc1 [benzyl isothiocyanate],0.117
5,COP(=O)(OC)OC=C(Cl)Cl [dichlorvos],0.0536
6,c1ccc2c(c1)Nc1ccccc1S2 [phenothiazine],-0.0745
7,C[C@]12CC[C@H]3[C@@H](CCC4=CC(=O)CC[C@@]43C)[C@@H]1CC[C@@H]2O [testosterone],-0.689
8,O=c1c2ccccc2[se]n1-c1ccccc1 [ebselen],-0.174
9,Cc1ccc(/N=C/N(C)/C=N/c2ccc(C)cc2C)c(C)c1 [amitraz],-1.41
10,O=c1ccc2cc(O[C@@H]3O[C@H](CO)[C@@H](O)[C@H](O)[C@H]3O)c(O)cc2o1 [esculin monohydrate],0.147
11,COc1cc2c3cc1Oc1c(OC)c(OC)cc4c1[C@@H](Cc1cccc(c1)Oc1ccc(c(O)c1)C[C@@H]3N(C)CC2)N(C)CC4 [berbamine hydrochloride],0.0908
12,NCC(O)c1ccc(O)cc1 (stereo unspecified) [octopamine hydrochloride],0.097
13,O=C1c2ccccc2-c2cccc3cccc1c23 [benzanthrone],0.164
14,CC(=O)O[C@H]1C[C@@H]2CC[C@@H]3[C@H](CC[C@@]4(C)[C@H]3C[C@H]([N+]3(C)CCCCC3)[C@@H]4OC(C)=O)[C@@]2(C)C[C@@H]1[N+]1(C)CCCCC1 [pancuronium bromide],-0.033
15,"C[C@]12CCC(=O)C[C@@H]1CC[C@@H]1[C@@H]2CC[C@]2(C)C(=O)CC[C@@H]12 [5alpha-androstan-3,17-dione]",0.127
16,CC1C=CC=CCCC=CC=CC=CC=CC(OC2OC(C)C(O)C(N)C2O)CC2OC(O)(CC(O)C(O)CCC(O)CC(O)CC(O)CC(=O)OC(C)C(C)C1O)CC(O)C2C(=O)O (stereo unspecified) [nystatin],-0.149
17,CC(=O)O[C@H]1CC[C@@]2(C)[C@H](CC[C@@H]3[C@@H]2CC[C@]2(C)[C@@H](C4=CC(=O)OC4)[C@@H](OC(C)=O)C[C@]32O)C1 [gitoxigenin diacetate],-1.36
18,C[C@@H]1C[C@H](O)[C@@]2(O)[C@]13CC(=O)OC[C@@]2(C)[C@@](C)(O)C(=O)C3 [pseudo-anisatin],0.204
19,N#C[C@H](O[C@@H]1O[C@H](CO[C@@H]2O[C@H](CO)[C@@H](O)[C@H](O)[C@H]2O)[C@@H](O)[C@H](O)[C@H]1O)c1ccccc1 [amygdalin],0.0631
20,CC[C@@H](CO)NC(=O)[C@@H]1C=C2c3cccc4c3c(cn4C)C[C@H]2N(C)C1 [methysergide maleate],0.00491
21,COc1cc2c(c(OC)c1OC)-c1ccc(OC)c(=O)cc1[C@@H](NC(C)=O)CC2 [colchicine],-0.19
22,C[C@]12CC[C@H](O)CC1=CC[C@@H]1[C@@H]2CC[C@]2(C)C(=O)CC[C@@H]12 [prasterone],0.07

row,Structure (SMILES),log
1,N#Cc1c(Cl)c(Cl)c(Cl)c(C#N)c1Cl [tetrachloroisophthalonitrile],-1.51
2,c1ccc2c(c1)OCC(C1=NCCN1)O2 (stereo unspecified) [idazoxan hydrochloride],0.12
3,CC1=C2C(=CO[C@H](C)[C@H]2C)C(O)=C(C(=O)O)C1=O [citrinin],0.0799
4,CC(C)c1cccc(C(C)C)c1O [propofol],0.184
5,Cc1nccc2c1[nH]c1cc(O)ccc12 [harmol hydrochloride],0.0278
6,N[C@H](CO)Cc1ccccc1 [l-phenylalaninol],0.0843
7,Cc1[nH]c2ccccc2c1CN(C)C [2-methyl gramine],0.142
8,CC(=O)O[C@H]1CC[C@@]2(C)C(=CC[C@@H]3[C@@H]2CC[C@]2(C)C(=O)CC[C@@H]32)C1 [prasterone acetate],0.0454
9,O=C1C2CC=CCC2C(=O)N1SC(Cl)(Cl)Cl (stereo unspecified) [captan],-1.45
10,CN1C[C@H](CNC(=O)OCc2ccccc2)C[C@@H]2c3cccc4c3c(cn4C)C[C@H]21 [metergoline],0.0525
11,COC1=CC(=O)O[C@@H](/C=C/c2ccccc2)C1 [kawain],0.00852
12,Oc1ccc2c3c1O[C@H]1[C@@H](O)CC[C@@]4(O)[C@@H](C2)N(CC2CCC2)CC[C@]314 [nalbuphine hydrochloride],-0.0615
13,O=C(O)CC[N+](=O)[O-] [bovinocidin],0.147
14,CN1CCc2cc3c(cc2[C@H]1[C@@H]1OC(=O)c2c1ccc1c2OCO1)OCO3 [bicuculline (+)],0.147
15,C=CCc1ccc(OC)cc1 [estragole],-0.0356
16,NCC1(CC(=O)O)CCCCC1 [gabapentin],-0.138
17,COc1cc2ccc(=O)oc2c2ccoc12 [sphondin],0.0658
18,O=c1cccc2n1C[C@@H]1CNC[C@H]2C1 [cytisine],0.0489
19,O=C(CCCN1CCC2(CC1)C(=O)NCN2c1ccccc1)c1ccc(F)cc1 [spiperone],0.3
20,CC1=CCCC2C1(C)CCC(C)C2(C)CC/C(C)=C/Cn1c[n+](C)c2c(N)ncnc21 (stereo unspecified) [agelasine (stereochemistry of diterpene unknown)],0.0279
21,"CC1(C)C(=O)[C@@H]2O[C@@H]2[C@@]2(C)C1C[C@@H](O)[C@]1(C)C2CC[C@@]2(C)[C@H](c3ccoc3)OC(=O)C3OC321 (stereo partly drawn) [1,2alpha-epoxydeacetoxydihydrogedunin]",-0.235
22,CC(N)C(O)c1ccccc1 (stereo unspecified) [phenylpropanolamine hydrochloride],0.152

# A second format for part of the listing above.
row	Structure (SMILES)	log
1	CC(=O)O[C@@H]1[C@H]2CC[C@H]3[C@@](C)(O)[C@@H]4C[C@H](O)C(C)(C)[C@@]4(O)[C@H](O)C[C@@]13C[C@@]2(C)O [grayanotoxin i]	0.0183
2	Cc1cccc(C)c1NC(=O)CN1CCCC1=O [nefiracetam]	0.0463

# Following part

row,Structure (SMILES),log
1,O=C(O)CF [sodium fluoroacetate],0.0145
2,O=[N+]([O-])O[C@H]1CO[C@H]2[C@@H]1OC[C@H]2O[N+](=O)[O-] [isosorbide dinitrate],0.0697
3,CC(O)(CS(=O)(=O)c1ccc(F)cc1)C(=O)Nc1ccc(C#N)c(C(F)(F)F)c1 (stereo unspecified) [bicalutamide],-0.0109
4,CCOC(=O)c1cncn1[C@H](C)c1ccccc1 [etomidate],-0.0284
5,CCC1(C2=NCCN2)Cc2ccccc2O1 (stereo unspecified) [efaroxan hydrochloride],0.0245
6,CC[C@@H](CO)NC(=O)[C@@H]1C=C2c3cccc4[nH]cc(c34)C[C@H]2N(C)C1 [methylergonovine maleate],-0.0723
7,COc1cc2c(cc1OC)[C@@H]1C(=O)c3ccc4c(c3O[C@@H]1CO2)CC(C(C)C)O4 (stereo partly specified) [dihydrorotenone],-1.36
8,CCCCOC(=O)c1ccccc1C(=O)OCCCC [dibutyl phthalate],-1.53
9,"COc1ccc2c(c1OC)C(=O)O[C@@H]2[C@H]1c2cc3c(cc2CCN1C)OCO3 [hydrastine (1r, 9s)]",-0.0812
10,Cc1cc(C(C#N)c2ccc(Cl)cc2)c(Cl)cc1NC(=O)c1cc(I)cc(I)c1O (stereo unspecified) [closantel],-1.22
11,O=C(O)c1nn(Cc2ccc(Cl)cc2Cl)c2ccccc12 [lonidamine],0.0354
12,C[N+]12CC[C@@]34c5ccccc5N5C(=O)C[C@@H]6OCC=C(C1)[C@H](C[C@@H]32)[C@@H]6[C@H]54 (stereo partly specified) [strychnine methiodide],0.0163
13,C[C@@H]1C[C@@H]([C@H](O)CC2CC(=O)NC(=O)C2)C(=O)[C@@H](C)C1 [cycloheximide],-1.35
14,COc1cc2c(cc1O)CCN[C@@H]2C [salsoline],-0.0232
15,CC(=O)O[C@H]1C(=O)[C@@]2(C)[C@H]([C@H](OC(=O)c3ccccc3)[C@]3(O)C[C@H](O)C(C)=C1C3(C)C)[C@]1(OC(C)=O)CO[C@@H]1C[C@@H]2O [baccatin iii],0.0567
16,CC(C)(C#N)O[C@@H]1O[C@H](CO)[C@@H](O)[C@H](O)[C@H]1O [linamarin],0.134
17,CC(C)(O)[C@@H]1[C@H]2OC(=O)[C@@H]1[C@]1(O)C[C@H]3O[C@]34C(=O)O[C@H]2[C@]14C [picrotin],0.145
18,c1cncc([C@@H]2CCCCN2)c1 [anabasine hydrochloride],0.171
19,C=C(C)[C@H]1Cc2c(ccc3c(=O)c4c(oc23)COc2cc(OC)c(OC)cc2-4)O1 [dehydrorotenone],0.122
20,CCC(C)C(=O)OC1CC2(C)C(c3ccoc3)OC(=O)CC23OC2(C)OC34C(OC(=O)C(C)C)C3(O)C(OC(=O)C5(C)OC5C)C5(C)CC3(O)C(C)(C5CC(=O)OC)C14O2 (stereo unspecified) [entandrophragmin],0.085
21,C[N+]1(C)CCc2cc3c(cc2[C@H]1[C@@H]1OC(=O)c2c1ccc1c2OCO1)OCO3 [bicuculline(-) methiodide],0.168
22,C=CCc1cc(OC)c2c(c1OC)OCO2 [apiole],0.0459

# — the supplement of paper PMC7024190
